From US6368793B1, “Metabolic selection methods” (MicroGenomics, Inc., priority 1998, dated 2002)
At least one structure is not confirmed: it was looked up by name or label, or the drawing left a doubt.

Assays:
Assay in all cases: Compound utilization of environmental isolates (growth on minimal medium)
Format in all cases: cell-based
[1] = test system: Bacillus megaterium; settings: 2-KLG column, 24 HR
[2] = test system: Streptomyces species; parameters: key to the marks not given beside the values; settings: 2-KLG column, 24 HR
[3] = test system: Yellow Bug; parameters: key to the marks not given beside the values; settings: 2-KLG column, 24 HR
[4] = test system: Klebsiella species; settings: 2-KLG column, 72 HR
[5] = test system: Klebsielia oxytoca; settings: 2-KLG column, 72 HR
Experimental: Samples from diverse natural environments were collected to use for the isolation of microbes that can utilize ascorbic acid (AsA) as the sole carbon source. No bacterial species has previously been reported to grow on AsA minimal medium.
Environmental samples were collected from freshwater lakes, lemon and orange orchards, residential backyard soils, human and animal solid wastes.
Over 100 microbial isolates, capable of forming visible colonies within 20 hours of incubation at 30° C. on M9 minimal medium containing 0.5% AsA, were selected from these samples. These 100 isolates were then screened for their ability to grow on 2-Keto-L-Gulonate (2-KLG) minimal medium.
Thus, Kelbsiella oxytoca was retained as a candidate for genetic engineering of a host strain that can use AsA under controlled conditions for the selection of cloned microbial pathways from 2-KLG to AsA.

[6] = test system: Unknown Malodorous Short Rod; settings: 2-KLG column, 72 HR

O=C(O)C(=O)[C@@H](O)[C@H](O)[C@@H](O)CO [2-KLG, 2-keto-L-gulonate]
Compound utilization [1]: +
Compound utilization [2]: ++
Compound utilization [3]: +++
Compound utilization [4]: −
Compound utilization [5]: −
Compound utilization [6]: −
